From publication PMC11886612
Results are given in words; binding and its absence hold for the method and conditions named. In cells and extracts the contact can be indirect. Some entries that bind do so weakly or less than the wild type. Sequences can lack the tags named with a protein.

Chains of the proteins cited; added tags and fusions are not shown. Residues count along the entry.
UniProt Q64428, residues 37-763: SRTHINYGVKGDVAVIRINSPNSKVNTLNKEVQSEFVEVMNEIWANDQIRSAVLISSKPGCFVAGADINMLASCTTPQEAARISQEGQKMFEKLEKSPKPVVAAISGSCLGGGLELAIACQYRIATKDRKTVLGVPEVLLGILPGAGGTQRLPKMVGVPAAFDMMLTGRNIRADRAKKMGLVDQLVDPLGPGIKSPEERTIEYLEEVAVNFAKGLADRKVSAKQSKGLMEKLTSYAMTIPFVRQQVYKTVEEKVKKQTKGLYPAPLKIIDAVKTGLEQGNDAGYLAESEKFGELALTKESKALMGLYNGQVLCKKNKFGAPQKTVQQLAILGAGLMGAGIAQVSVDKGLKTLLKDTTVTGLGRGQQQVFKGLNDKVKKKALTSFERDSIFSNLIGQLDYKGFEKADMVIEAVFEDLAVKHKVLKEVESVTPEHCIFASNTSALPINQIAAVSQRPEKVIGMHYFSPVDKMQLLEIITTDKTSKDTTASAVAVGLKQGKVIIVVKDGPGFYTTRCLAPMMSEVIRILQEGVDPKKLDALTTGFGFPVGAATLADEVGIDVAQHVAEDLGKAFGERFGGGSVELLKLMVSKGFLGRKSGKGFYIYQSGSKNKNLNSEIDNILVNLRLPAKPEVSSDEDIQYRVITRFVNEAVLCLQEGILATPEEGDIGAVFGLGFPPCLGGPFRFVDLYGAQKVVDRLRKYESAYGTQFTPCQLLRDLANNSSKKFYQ

Biological target: T1, HDAC3 (histone deacetylase 3), endogenous in cardiomyocytes (rat (endogenous in neonatal rat cardiomyocytes)) (UniProt Q6P6W3)
T1 sequence: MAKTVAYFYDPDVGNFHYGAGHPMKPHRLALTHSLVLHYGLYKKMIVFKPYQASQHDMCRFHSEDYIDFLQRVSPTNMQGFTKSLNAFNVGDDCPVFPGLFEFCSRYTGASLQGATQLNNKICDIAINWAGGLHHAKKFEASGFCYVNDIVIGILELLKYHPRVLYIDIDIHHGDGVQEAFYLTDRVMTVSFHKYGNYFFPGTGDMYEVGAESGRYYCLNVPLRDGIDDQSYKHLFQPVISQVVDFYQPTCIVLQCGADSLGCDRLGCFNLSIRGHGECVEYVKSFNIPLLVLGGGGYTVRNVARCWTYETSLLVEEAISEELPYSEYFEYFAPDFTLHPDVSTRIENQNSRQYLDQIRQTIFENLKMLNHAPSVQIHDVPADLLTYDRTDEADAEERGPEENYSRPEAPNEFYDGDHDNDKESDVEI
Experiment: co-IP; endogenous proteins in cardiomyocytes, control or HG/HP, with control or Decr1 siRNA

binding: binds
Substance: HADHA (hydroxyacyl-CoA dehydrogenase trifunctional multienzyme complex subunit alpha), endogenous in cardiomyocytes (from UniProt Q64428 37-763)
